The values that follow come from paper PMC10781749.

The chains behind the UniProt entries cited, without tags or fusion partners. Where a name states a change or a piece, a line headed by the entry shows the natural chain unless it says otherwise.
UniProt Q5LDU9: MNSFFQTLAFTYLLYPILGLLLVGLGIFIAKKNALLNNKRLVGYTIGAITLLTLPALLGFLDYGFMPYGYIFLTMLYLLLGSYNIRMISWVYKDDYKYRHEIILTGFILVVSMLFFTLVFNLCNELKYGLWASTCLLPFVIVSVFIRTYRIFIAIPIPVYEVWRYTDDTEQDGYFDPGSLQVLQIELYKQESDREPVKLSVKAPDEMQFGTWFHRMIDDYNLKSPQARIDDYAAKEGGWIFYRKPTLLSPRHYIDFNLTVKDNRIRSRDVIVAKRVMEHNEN
UniProt A0A380YY58: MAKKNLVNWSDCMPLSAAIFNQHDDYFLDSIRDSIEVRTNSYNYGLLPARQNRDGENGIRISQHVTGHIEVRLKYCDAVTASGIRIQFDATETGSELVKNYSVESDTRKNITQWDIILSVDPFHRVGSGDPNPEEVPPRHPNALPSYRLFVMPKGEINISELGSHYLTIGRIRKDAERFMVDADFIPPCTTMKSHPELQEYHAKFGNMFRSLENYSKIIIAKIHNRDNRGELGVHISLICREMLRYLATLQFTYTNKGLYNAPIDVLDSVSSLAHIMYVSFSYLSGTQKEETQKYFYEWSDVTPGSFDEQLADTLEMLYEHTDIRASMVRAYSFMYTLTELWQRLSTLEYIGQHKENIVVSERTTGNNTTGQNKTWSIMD
UniProt Q5LDV3: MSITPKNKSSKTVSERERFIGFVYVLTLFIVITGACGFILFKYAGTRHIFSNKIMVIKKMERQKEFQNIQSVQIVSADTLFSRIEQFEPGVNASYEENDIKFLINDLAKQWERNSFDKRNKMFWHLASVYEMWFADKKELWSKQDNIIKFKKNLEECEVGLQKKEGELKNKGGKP
UniProt Q5LDV4: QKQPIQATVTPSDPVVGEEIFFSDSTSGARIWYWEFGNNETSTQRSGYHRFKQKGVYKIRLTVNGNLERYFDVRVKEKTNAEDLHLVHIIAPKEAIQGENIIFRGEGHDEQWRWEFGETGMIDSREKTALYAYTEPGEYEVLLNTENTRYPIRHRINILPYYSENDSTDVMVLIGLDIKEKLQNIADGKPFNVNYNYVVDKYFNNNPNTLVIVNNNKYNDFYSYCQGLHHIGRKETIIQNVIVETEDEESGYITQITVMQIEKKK

Results are given in words; binding and its absence hold for the method and conditions named. Binding seen in cells or lysates may run through a third protein. Binding calls can cover weak binding; strength is not graded here.

Experiment [1] has as its target TssN with a C-terminal STREP tag, produced in E. coli (Bacteroides fragilis NCTC 9343) (UniProt Q5LDU9). The experiment is described as follows: pull-down; pairwise co-production in E. coli; extraction from membranes with detergent; TssN^S as bait on a STREP-affinity column (StrepTrap), elution with desthiobiotin; immunoblot.
The target in experiment [2] is TssN^STREP (tssN tagged at its native locus in B. fragilis NCTC 9343) (Bacteroides fragilis NCTC 9343) (UniProt Q5LDU9). Nature of the experiment: pull-down; same two-step affinity purification from B. fragilis membranes; elution probed by Western blot with anti-STREP and anti-HIS. A general note: In western blotting, separated proteins are transferred to a membrane and probed.

For experiment [3], the target named is periplasmic domain of TssR with a STREP tag (TssRp^S) (Bacteroides fragilis NCTC 9343) (UniProt Q5LDV5). The experiment is described as follows: pull-down; periplasmic domains co-produced in E. coli; TssRp^S as bait on a STREP-affinity column; immunoblot.

Regarding TssK^HA (from UniProt A0A380YY58), the binding entry in experiment [1] was “binds”. For “^HISTssO (tssO tagged at its native locus in B. fragilis NCTC 9343) (from UniProt Q5LDV3)”, the binding entry in experiment [2] is on record as “binds”.

As for “periplasmic domain of TssP (TssPp) (from UniProt Q5LDV4) (domain or fragment)”, the binding result in experiment [3] is recorded as “binds”.
